Measured values from paper PMC8753592, “Long-acting capsid inhibitor protects macaques from repeat SHIV challenges” (Nature, 2021).
Values joined by “and” are separate entries in the source; they are usually repeats but may differ in a detail not shown here. Identical values can stand only once. Like-named read-outs stand apart in the source and are kept apart here. This continues a long series; more values of the same kind are listed elsewhere.

Tests used:
SHIV-SF162P3 [1] = assay type: cell-based, SHIV (in rhesus macaque, Macaca mulatta, PBMCs); conditions: experiments 1–7
Description: Freshly isolated PBMCs from three male rhesus macaque (M. mulatta) donors of Indian origin (HumanCells Biosciences) were cultured in RPMI-1640 cell culture medium (Life Technologies) supplemented with 10% heat-inactivated FBS (Hyclone), 2 mM glutamine and 100 U ml^−1 penicillin plus 100 μg ml^−1 streptomycin (complete RPMI). Before their use in the antiviral assays, rhesus PBMCs from three independent donors were pooled and activated at a density of 3 × 10^6 cells per ml for 72 h at 37 °C by the addition of 1 μg ml^–1 phytohemagglutinin (PHA, Sigma-Aldrich) and 50 U ml^−1 recombinant human interleukin-2 (IL-2) (Roche Diagnostics).
PHA/IL-2-stimulated rhesus PBMCs were infected in bulk culture with SHIV-SF162P3 at a concentration of 130 pg of p27 equivalent per million PBMCs. The cells were maintained in suspension by gently rocking the cultures mixed with virus inoculum for 3 h at 37 °C. The cells were then pelleted by centrifugation at 500g for 5 min, washed twice with complete RPMI to remove any unadsorbed virus and seeded into 96-well plates at a cell density of 2 × 10^5 cells per well in 100 μl. […] The cultures were incubated in a 5% CO2 incubator at 37 °C for 7 days. Cell-free supernatants derived from the PBMC cultures were harvested 7 days after infection, the amount of SHIV present was quantified using an SIV p27 antigen-capture ELISA assay (5436, Advanced Bioscience Laboratories) performed according to the manufacturer’s protocol, and the data were acquired using SoftMax Pro 6.3.1 software (Molecular Devices).

SHIV-SF162P3 [2] = test: Repeated escalating-dose rectal SHIV challenge study (plasma viraemia by gag RT-qPCR); assay type: in vivo, rhesus macaques of Indian origin; conditions: GS-CA1 150mg/kg
Description: For the challenge study, 24 outbred rhesus macaques of Indian origin were assigned to the three study groups with even sex and weight distributions. All animals were housed at Alpha Genesis (Yemassee, SC), and all procedures were conducted in compliance with all relevant local, state and federal regulations and were approved by the Alpha Genesis IACUC. […] The injection sites were monitored daily by veterinary staff for 3 days. Beginning in week 1, animals in all three groups were challenged by the intrarectal route with 1 ml of RPMI containing the specified dilution of a 3.62 × 10^3 TCID50 SHIV-SF162P3 stock. At each respective time point, the challenges were performed on the same day, using the same virus stock and inoculation method across the three groups. Whole blood was collected and processed into plasma and PBMCs as necessary to assess routine haematology, clinical chemistry, viral load and serology as well as for bioanalysis of drug levels. The animals were considered to be protected if they remained SHIV negative by plasma PCR assay and seronegative by enzyme immunoassay throughout the 15-week challenge phase and the 9-week follow-up.
RNA was extracted from rhesus macaque plasma using a QIAcube high-throughput instrument and an IndiSpin QIAcube HT Pathogen kit (Qiagen). RNA standards using the SIV gag sequence were generated by AmpliCap-Max T7 High-Yield Message Maker kit (Cell Script) and were purified using an RNA Clean and Concentrator kit (Zymo Research). Log dilutions of the RNA were included with each RT–qPCR assay. Reverse transcription of standards and samples was performed using a Superscript III VILO kit (Invitrogen). qPCR was performed using forward primer 5′-[…]-3′, reverse primer 5′-[…]-3′ and fluorescently labelled primer 5′-[…]-3′ on a Quantstudio 6 Flex system (Applied Biosystems). The assay LOD was 200 copies gag per ml.
Protection against acquired infection was analysed using Cox proportional hazard regression models based on the exact partial likelihood for discrete time expressed in weeks, which explicitly accounts for the time-varying viral challenge dose in the model. The hazard ratios with 95% confidence intervals for per-exposure relative reductions in acquisition risk were calculated for the GS-CA1-treated groups, and the results were compared with those for the vehicle-treated control group. Comparisons were considered statistically significant at a two-sided alpha level of 0.05 (P < 0.05). Statistical analyses were performed using GraphPad Prism version 8.1.2, SAS version 9.4 and R Studio software version 4.0.5.

CC(C)(C#Cc1ccc(-c2ccc(Cl)c3c(NS(=O)(=O)C4CC4)nn(CC(F)F)c23)c([C@H](Cc2cc(F)cc(F)c2)NC(=O)Cn2nc(C(F)F)c3c2C(F)(F)[C@@H]2C[C@H]32)n1)S(C)(=O)=O [GS-CA1]
% Virus Production, replicates n1–n3 (SHIV-SF162P3 [1]; 0.011 nM): 129% and 140% and 95% and 64% and 62% and 78% | % Virus Production, replicates n1–n3 (SHIV-SF162P3 [1]; 0.034 nM): 100% and 113% and 84% and 46% and 63% and 77% | % Virus Production, replicates n1–n3 (SHIV-SF162P3 [1]; 0.103 nM): 106% and 94% and 96% and 64% and 68% and 70% | % Virus Production, replicates n1–n3 (SHIV-SF162P3 [1]; 0.309 nM): 133% and 83% and 67% and 60% and 55% and 77% and 114% and 90% | % Virus Production, replicates n1–n3 (SHIV-SF162P3 [1]; 0.926 nM): 15% and 30% and 21% and 19% and 49% | % Virus Production, replicates n1–n3 (SHIV-SF162P3 [1]; 2.778 nM): 2.16% and 2.5% and 3% and 1.09% and 1.19% and -0.328% and 0.0863% and 0.4% | % Virus Production, replicates n1–n3 (SHIV-SF162P3 [1]; 8.333 nM): 1.26% and 2.41% and 2% and 0.764% and -0.341% and -0.19% and -0.0556% and 1.21% and 0.0342% | % Virus Production, replicates n1–n3 (SHIV-SF162P3 [1]; 25.000 nM): -0.742% and -0.504% and -0.141% and 1.27% and 0.894% and -0.0427% and -0.107% | Plasma SHIV viral load (SHIV-SF162P3 [2]; Week 1, individual animals): 200 gag RNA copies per ml | Plasma SHIV viral load (SHIV-SF162P3 [2]; Week 2, individual animals): 200 gag RNA copies per ml | Plasma SHIV viral load (SHIV-SF162P3 [2]; Week 3, individual animals): 200 gag RNA copies per ml | Plasma SHIV viral load (SHIV-SF162P3 [2]; Week 4, individual animals): 200 gag RNA copies per ml | Plasma SHIV viral load (SHIV-SF162P3 [2]; Week 5, individual animals): 200 gag RNA copies per ml | Plasma SHIV viral load (SHIV-SF162P3 [2]; Week 6, individual animals): 200 gag RNA copies per ml | Plasma SHIV viral load (SHIV-SF162P3 [2]; Week 7, individual animals): 200 gag RNA copies per ml | Plasma SHIV viral load (SHIV-SF162P3 [2]; Week 8, individual animals): 200 gag RNA copies per ml | Plasma SHIV viral load (SHIV-SF162P3 [2]; Week 9, individual animals): 200 gag RNA copies per ml | Plasma SHIV viral load (SHIV-SF162P3 [2]; Week 10, individual animals): 200 gag RNA copies per ml | Plasma SHIV viral load (SHIV-SF162P3 [2]; Week 11, individual animals, 150 mg/kg): 200 gag RNA copies per ml and 2317 gag RNA copies per ml | Plasma SHIV viral load (SHIV-SF162P3 [2]; Week 12, individual animals, 150 mg/kg): 200 gag RNA copies per ml and 1251253 gag RNA copies per ml | Plasma SHIV viral load (SHIV-SF162P3 [2]; Week 13, individual animals, 150 mg/kg): 200 gag RNA copies per ml and 4495324 gag RNA copies per ml and 15543 gag RNA copies per ml | Plasma SHIV viral load (SHIV-SF162P3 [2]; Week 14, individual animals, 150 mg/kg): 200 gag RNA copies per ml and 192698 gag RNA copies per ml and 302527 gag RNA copies per ml and 14481 gag RNA copies per ml | Plasma SHIV viral load (SHIV-SF162P3 [2]; Week 15, individual animals, 150 mg/kg): 200 gag RNA copies per ml and 1636073 gag RNA copies per ml and 41252 gag RNA copies per ml and 436449 gag RNA copies per ml | Plasma SHIV viral load (SHIV-SF162P3 [2]; Week 16, individual animals, 150 mg/kg): 43433 gag RNA copies per ml and 200 gag RNA copies per ml and 144532 gag RNA copies per ml and 37186 gag RNA copies per ml and 15508 gag RNA copies per ml and 62513 gag RNA copies per ml | Plasma SHIV viral load (SHIV-SF162P3 [2]; Week 17, individual animals, 150 mg/kg): 28104 gag RNA copies per ml and 200 gag RNA copies per ml and 128422 gag RNA copies per ml and 4020 gag RNA copies per ml and 5872 gag RNA copies per ml and 1974 gag RNA copies per ml and 76901 gag RNA copies per ml | Plasma SHIV viral load (SHIV-SF162P3 [2]; Week 18, individual animals, 150 mg/kg): 8535 gag RNA copies per ml and 200 gag RNA copies per ml and 144695 gag RNA copies per ml and 18625 gag RNA copies per ml and 13017 gag RNA copies per ml and 2250 gag RNA copies per ml and 14905 gag RNA copies per ml | Plasma SHIV viral load (SHIV-SF162P3 [2]; Week 19, individual animals, 150 mg/kg): 2197 gag RNA copies per ml and 200 gag RNA copies per ml and 23783 gag RNA copies per ml and 733 gag RNA copies per ml and 4607 gag RNA copies per ml and 1586 gag RNA copies per ml and 872 gag RNA copies per ml | Plasma SHIV viral load (SHIV-SF162P3 [2]; Week 20, individual animals, 150 mg/kg): 200 gag RNA copies per ml and 533 gag RNA copies per ml and 294 gag RNA copies per ml and 1229 gag RNA copies per ml | Plasma SHIV viral load (SHIV-SF162P3 [2]; Week 21, individual animals, 150 mg/kg): 200 gag RNA copies per ml and 8674 gag RNA copies per ml and 2199 gag RNA copies per ml | Plasma SHIV viral load (SHIV-SF162P3 [2]; Week 22, individual animals, 150 mg/kg): 200 gag RNA copies per ml and 2557 gag RNA copies per ml and 493 gag RNA copies per ml
